Data reported in PMC4697807, “Novel Zn^2+ Modulated GPR39 Receptor Agonists Do Not Drive Acute Insulin Secretion in Rodents” (PLoS ONE, 2015).

Columns and labels:
[1] = PKPD analysis: in vivo exposures versus in vitro potencies; set-up: species or system mouse
[2] = Isothermal titration calorimetry (ITC) of compound with ZnCl2; details: ITC at 30°C; single site binding model; ± SD
Protocol: To determine the binding affinities of the discussed compounds for Zn^2+, isothermal titration calorimetry experiments were conducted on a MicroCal ITC-200 system (Malvern Instruments) at a temperature of 30°C. The compounds, provided as a DMSO stock solution of 10 mM, were diluted in 50 mM HEPES (pH 7.4) and 150 mM NaCl to reach a final nominal concentration of 400 μM (= 4% (v/v) final DMSO concentration). Complete titration of the compounds was typically achieved by injecting 27 x 1.3 μl aliquots of 5 mM ZnCl2 provided in a matching buffer. The thermodynamic binding parameters were extracted by non-linear regression analysis of the binding isotherms (Microcal Origin version 7.0 software package). A single site binding model was applied, yielding binding enthalpy (ΔH), stoichiometry (n), entropy (ΔS), and association constant (Ka). All experiments have been performed in triplicate to allow for error estimations.

[3] = each of the screens in the presence of Zn^2+, lean mice

| Compound | in vivo exposure versus in vitro potency ratio ([1]; DMR assay in the absence of Zn^2+) | in vivo exposure versus in vitro potency ratio [1, 3] | n value (stoichiometry) [2] | ΔH (binding enthalpy) [2] [kcal/mol] |
| --- | --- | --- | --- | --- |
| N#Cc1ccc(OCCn2ccnc2)c(OCCn2ccnc2)c1 [AZ1395, 3,4-bis-(2-imidazol-1-ylethoxy)-benzonitrile] | > 10 | > 10 | 0.93 ± 0.12 | – |
| Cc1nc2c(C(=O)O)cnn2c(O)c1Cc1ccc(Cl)cc1 [AZ4237, 6-[(4-chlorophenyl)methyl]-7-hydroxy-5-methyl-pyrazolo[1,5-a]pyrimidine-3-carboxylic acid] | – | > 10 | 1.18 ± 0.02 | -1.30 ± 0.25 |
| Cc1nc(-c2nc3c(c(=O)[nH]2)CN(C(=O)c2cccc(Cl)c2F)CC3)cs1 [AZ7914, 6-(3-chloro-2-fluoro-benzoyl)-2-(2-methylthiazol-4-yl)-3,5,7,8-tetrahydropyrido-[4,3-d]pyrimidin-4-one] | – | > 10 | 0.56 ± 0.08 | -3.00 ± 0.71 |
